# In patent US20030190671A1, “Use of metabolic phenotyping in individualized treatment with amonafide” (McGill University, priority 2001, published 2003):
# Tested on: 1X-Ab
# Test: Competitive antigen ELISA, cross-reactivity of 1X-Ab
# Assay type: binding, rabbit
# Conditions: for [1X] × 10^6 (M) determined by ELISA: fixed 1X concentration 3 × 10^−6 M, printed value = [1X] × 10^6; for apparent increase of 1X concentration: fixed 1X concentration 3×10^−6 M
# Procedure: Competitive Antigen ELISA
# (§1) Buffers and water without additives are filtered through millipore filters and kept for 1 week. BSA, antibodies, Tween™ 20 and horse radish peroxidase conjugates are added to these buffers and water just prior to use. Urine samples are usually collected 4 hours after drinking a cup of coffee (instant or brewed with approximately 100 mg of caffeine per cup) and stored at −80° C. The urine samples are diluted 10 times with sodium phosphate buffer (620 mosm, pH 7.50) and are subsequently diluted with water to give concentrations of AAMU and 1X no higher than 3×10^−6 M in the ELISA. All the pipettings are done with an eight-channel pipette, except those of the antibody and sample solutions. Starting with the last well, 100 μL of a carbonate buffer (100 mM, pH 9.6) containing 2.5 μg mL-1 antibodies are added to each well. After 90 min. at room temperature, the wells are washed three times with 100 mL of TPB: isotonic sodium phosphate buffer (310 mosm, pH 7.50) containing 0.05% Tween™ 20.
# After the initial wash, unoccupied sites are blocked by incubation for 90 min. at room temperature with 100 μL TBP containing 3% BSA. The wells are washed four times with 100 […] TPB. […] The microplate is gently shaken with an orbital shaker at room temperature for 3-4 hours. The wells are washed three times with 100 μL TPB containing 1% BSA and three times with water containing 0.05% Tween™ 20. To the washed plate is added 150 μL of a substrate buffer composed of citric acid (25 mM) and sodium phosphate dibasic buffer (50 mM, pH 5.0) containing 0.06% hydrogen peroxide and 0.04% o-phenylenediamine hydrochloride.
# as §1, with “were” for “are”, “They were” for “The urine samples are”, “mL^−1” for “mL-1”, “was pipetted.” for “are added to each well.”, “μL” for “mL”
# After the initial wash, unoccupied sites were blocked by incubation for 90 min. at room temperature with 100 μL TBP containing 3% BSA. The wells were washed four times with 100 μL TPB. […] The microplate was gently shaken with an orbital shaker at room temperature for 3-4 hours. The wells were washed three times with 100 μL with TPB containing 1% BSA and three times with water containing 0.05% Tween™ 20. To the washed plate was added 150 μL of a substrate buffer composed of citric acid (25 mM) and sodium phosphate dibasic buffer (50 mM, pH 5.0) containing 0.06% hydrogen peroxide and 0.04% o-phenylenediamine hydrochloride. After 20 min. at room temperature with shaking, the reaction was stopped with 50 μL of 2.5 N HCl.
# The cross reactivities of AAMU-Ab and 1X-Ab were tested using a wide variety of caffeine metabolites and structural analogs (Table 2 below).
smiles,measurement,setting,value
"Cn1c(=O)[nH]c2nc[nH]c2c1=O [1-Methyl Xanthine (1X), 1-methylxanthine]",[1X] × 10^6 (M) determined by ELISA,1U:1X ratio 0.0,3.00 M
same,[1X] × 10^6 (M) determined by ELISA,1U:1X ratio 0.50,2.75 M
same,[1X] × 10^6 (M) determined by ELISA,1U:1X ratio 1.00,3.25 M
same,[1X] × 10^6 (M) determined by ELISA,1U:1X ratio 1.50,3.25 M
same,[1X] × 10^6 (M) determined by ELISA,1U:1X ratio 2.00,3.60 M
same,apparent increase of 1X concentration,1U:1X ratio 2.5,22%
same,[1X] × 10^6 (M) determined by ELISA,1U:1X ratio 2.50,3.65 M
same,apparent increase of 1X concentration,1U:1X ratio 3.0,32%
same,[1X] × 10^6 (M) determined by ELISA,1U:1X ratio 3.00,3.95 M
same,[1X] × 10^6 (M) determined by ELISA,1U:1X ratio 4.00,4.20 M
same,[1X] × 10^6 (M) determined by ELISA,1U:1X ratio 5.00,4.30 M
same,[1X] × 10^6 (M) determined by ELISA,1U:1X ratio 6.00,4.50 M
same,[1X] × 10^6 (M) determined by ELISA,1U:1X ratio 8.00,4.30 M
